{
  "source": "patent US20030190322A1",
  "about": "(priority 2000, published 2003)",
  "assay": "peptide made by a vendor",
  "settings": "whole synthesis",
  "data": [
    {"substance": "Ac-CDGAVQPDGGQPAVRNER-NH2", "values": [
      {"measurement": "purity (crude or final not stated)", "result": "purity more or about 95%"}
    ]}
  ]
}
